Results reported in patent publication US7217532B2, “Methods for detecting DNA damage and screening for cancer therapeutics” (The Wistar Institute of Anatomy and Biology, priority 2000, dated 2007).
At least one compound was matched to its structure with a doubt left.

Tested on: 53Bp1 foci in U2OS cells
Assay: Effect of wortmannin or caffeine on ionizing radiation-induced 53Bp1 foci, by immunofluorescent microscopy
Format: cell-based, human
Details: 1 Gy ionizing radiation

SMILES: COC[C@H]1OC(=O)c2coc3c2[C@@]1(C)C1=C(C3=O)[C@@H]2CCC(=O)[C@@]2(C)C[C@H]1OC(C)=O [wortmannin]
- number of 53Bp1 foci compared to untreated controls (20 μM wortmannin 1 hour prior to irradiation, at 30 minutes): much lower numbers of foci
- change of 53Bp1 foci numbers over time (20 μM wortmannin, time course): did not decrease significantly over time
